Drawing on publication PMC7199855, “GRAF2, WDR44, and MICAL1 mediate Rab8/10/11–dependent export of E-cadherin, MMP14, and CFTR ΔF508” (The Journal of Cell Biology, 2020), this text covers binding for three molecules.

The target in assay [1] is T1, endogenous WDR44 (HeLa) (human (endogenous in HeLa)) (UniProt Q5JSH3).
T1 sequence: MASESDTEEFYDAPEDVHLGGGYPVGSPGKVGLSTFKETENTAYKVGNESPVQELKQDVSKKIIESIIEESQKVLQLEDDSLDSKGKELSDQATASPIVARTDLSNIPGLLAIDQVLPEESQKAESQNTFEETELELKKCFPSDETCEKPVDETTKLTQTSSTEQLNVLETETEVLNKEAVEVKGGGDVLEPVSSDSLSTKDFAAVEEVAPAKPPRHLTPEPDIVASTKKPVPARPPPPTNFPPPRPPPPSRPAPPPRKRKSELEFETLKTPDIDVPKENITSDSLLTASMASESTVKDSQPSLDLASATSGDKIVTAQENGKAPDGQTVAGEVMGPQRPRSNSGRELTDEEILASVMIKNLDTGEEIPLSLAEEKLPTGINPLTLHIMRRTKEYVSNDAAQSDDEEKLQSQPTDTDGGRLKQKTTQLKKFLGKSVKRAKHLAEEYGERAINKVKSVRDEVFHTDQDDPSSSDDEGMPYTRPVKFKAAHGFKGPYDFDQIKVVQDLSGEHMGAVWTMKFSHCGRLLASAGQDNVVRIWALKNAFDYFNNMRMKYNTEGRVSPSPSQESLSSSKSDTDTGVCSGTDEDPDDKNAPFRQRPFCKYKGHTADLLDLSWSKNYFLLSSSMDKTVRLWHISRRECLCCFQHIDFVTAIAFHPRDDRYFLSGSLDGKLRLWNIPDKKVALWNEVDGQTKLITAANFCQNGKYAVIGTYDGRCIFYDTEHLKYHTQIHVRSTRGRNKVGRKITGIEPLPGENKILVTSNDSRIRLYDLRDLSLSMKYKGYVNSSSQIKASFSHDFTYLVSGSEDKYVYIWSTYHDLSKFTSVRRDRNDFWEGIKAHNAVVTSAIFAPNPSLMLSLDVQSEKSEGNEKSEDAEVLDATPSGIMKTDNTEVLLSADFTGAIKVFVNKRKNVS
The assay can be described thus: co-IP; endogenous proteins, HeLa; resuspended pellet of a 1% Triton X-100 lysate (20 mM Hepes pH 7.4, 150 mM NaCl, 2 mM EDTA); IP with α-GRAF2 or α-WDR44; Western blot. A general note: A western blot detects proteins with antibodies after separation by electrophoresis.

In assay [2] the target is T2, GST–GRAF1 SH3 (human) (UniProt Q9UNA1).
T2 sequence: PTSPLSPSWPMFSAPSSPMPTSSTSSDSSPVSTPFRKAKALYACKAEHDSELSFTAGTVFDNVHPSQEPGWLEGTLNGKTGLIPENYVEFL
The assay can be described thus: pull-down; GST-SH3 on glutathione sepharose beads with HeLa lysate, 30 min 4°C; 20 mM Hepes pH 7.4, 150 mM NaCl, 2 mM EDTA, 1% IGEPAL CA-630, 1 mM DTT; Western blot with α-WDR44 or α-MICAL1; only the target purified.

The target in assay [3] is T3, endogenous GRAF2 (human cells) (human (endogenous in HeLa and SH-SY5Y)) (UniProt A1A4S6).
T3 sequence: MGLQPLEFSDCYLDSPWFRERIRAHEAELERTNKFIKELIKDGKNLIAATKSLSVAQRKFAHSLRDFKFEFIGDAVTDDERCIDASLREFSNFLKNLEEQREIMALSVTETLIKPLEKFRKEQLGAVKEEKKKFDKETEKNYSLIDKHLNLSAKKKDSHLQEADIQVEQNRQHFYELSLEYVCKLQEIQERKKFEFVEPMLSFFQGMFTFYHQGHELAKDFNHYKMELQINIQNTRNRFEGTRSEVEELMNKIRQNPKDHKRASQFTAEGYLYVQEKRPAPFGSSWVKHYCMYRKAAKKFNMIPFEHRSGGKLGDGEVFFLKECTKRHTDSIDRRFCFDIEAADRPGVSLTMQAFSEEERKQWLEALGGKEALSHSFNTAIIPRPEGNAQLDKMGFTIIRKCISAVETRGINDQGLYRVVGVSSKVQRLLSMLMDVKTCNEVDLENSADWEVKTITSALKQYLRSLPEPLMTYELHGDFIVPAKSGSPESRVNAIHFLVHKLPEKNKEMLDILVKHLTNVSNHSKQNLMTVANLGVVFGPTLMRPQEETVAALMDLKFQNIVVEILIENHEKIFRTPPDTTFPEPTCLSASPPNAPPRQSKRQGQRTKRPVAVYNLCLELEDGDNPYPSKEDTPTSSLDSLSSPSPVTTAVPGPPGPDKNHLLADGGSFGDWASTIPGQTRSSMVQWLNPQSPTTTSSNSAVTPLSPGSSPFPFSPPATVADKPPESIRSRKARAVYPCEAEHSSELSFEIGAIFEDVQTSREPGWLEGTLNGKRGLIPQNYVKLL
The experiment in a line: co-IP; endogenous proteins, SH-SY5Y lysate (20 mM Hepes pH 7.4, 150 mM NaCl, 2 mM EDTA, 1% IGEPAL CA-630); IP with α-GRAF2; Western blot.

The target in assay [4] is T4, GST–GRAF2 SH3 (human) (UniProt A1A4S6).
T4 sequence: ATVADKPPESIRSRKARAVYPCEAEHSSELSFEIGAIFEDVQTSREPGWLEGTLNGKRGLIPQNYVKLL
The assay can be described thus: pull-down; GST-SH3 on glutathione sepharose beads with HeLa lysate, 30 min 4°C; 20 mM Hepes pH 7.4, 150 mM NaCl, 2 mM EDTA, 1% IGEPAL CA-630, 1 mM DTT; Western blot with α-WDR44 or α-MICAL1; only the target purified.

Assay [5] addresses T3, endogenous GRAF2 (human cells) (human (endogenous in HeLa and SH-SY5Y)). The experiment in a line: co-IP; endogenous proteins, HeLa; resuspended pellet of a 1% Triton X-100 lysate (20 mM Hepes pH 7.4, 150 mM NaCl, 2 mM EDTA); IP with α-GRAF2 or α-WDR44; Western blot.

No constants are given. Whether binding was seen depends on the method and setting. In cells and extracts the contact can be indirect. Some results given as binding are weak or reduced against the parent protein; the word gives no strength. For part of these data: Sequences can lack the tags named with a protein.

B1: endogenous GRAF2 (human cells) (protein, UniProt A1A4S6 1-786)
chain: T3 sequence
Consider B1, for which the binding entry in assay [1] is on record as “binds”.

B2: endogenous MICAL1 (human cells) (protein, UniProt Q8TDZ2 1-1067)
chain: MASPTSTNPAHAHFESFLQAQLCQDVLSSFQELCGALGLEPGGGLPQYHKIKDQLNYWSAKSLWTKLDKRAGQPVYQQGRACTSTKCLVVGAGPCGLRVAVELALLGARVVLVEKRTKFSRHNVLHLWPFTIHDLRALGAKKFYGRFCTGTLDHISIRQLQLLLLKVALLLGVEIHWGVTFTGLQPPPRKGSGWRAQLQPNPPAQLANYEFDVLISAAGGKFVPEGFKVREMRGKLAIGITANFVNGRTVEETQVPEISGVARIYNQSFFQSLLKATGIDLENIVYYKDDTHYFVMTAKKQCLLRLGVLRQDWPDTNRLLGSANVVPEALQRFTRAAADFATHGKLGKLEFAQDAHGQPDVSAFDFTSMMRAESSARVQEKHGARLLLGLVGDCLVEPFWPLGTGVARGFLAAFDAAWMVKRWAEGAESLEVLAERESLYQLLSQTSPENMHRNVAQYGLDPATRYPNLNLRAVTPNQVRDLYDVLAKEPVQRNNDKTDTGMPATGSAGTQEELLRWCQEQTAGYPGVHVSDLSSSWADGLALCALVYRLQPGLLEPSELQGLGALEATAWALKVAENELGITPVVSAQAVVAGSDPLGLIAYLSHFHSAFKSMAHSPGPVSQASPGTSSAVLFLSKLQRTLQRSRAKENAEDAGGKKLRLEMEAETPSTEVPPDPEPGVPLTPPSQHQEAGAGDLCALCGEHLYVLERLCVNGHFFHRSCFRCHTCEATLWPGGYEQHPGDGHFYCLQHLPQTDHKAEGSDRGPESPELPTPSENSMPPGLSTPTASQEGAGPVPDPSQPTRRQIRLSSPERQRLSSLNLTPDPEMEPPPKPPRSCSALARHALESSFVGWGLPVQSPQALVAMEKEEKESPFSSEEEEEDVPLDSDVEQALQTFAKTSGTMNNYPTWRRTLLRRAKEEEMKRFCKAQTIQRRLNEIEAALRELEAEGVKLELALRRQSSSPEQQKKLWVGQLLQLVDKKNSLVAEEAELMITVQELNLEEKQWQLDQELRGYMNREENLKTAADRQAEDQVLRKLVDLVNQRDALIRFQEERRLSELALGTGAQG
With B2, the binding result in assay [2] and in assay [3] was “binds” in each case.

B3: endogenous WDR44 (HeLa) (protein, UniProt Q5JSH3 1-913)
chain: T1 sequence
In the case of B3, the binding entry in assay [4], in assay [2] and in assay [5] was “binds” in each case.
